Some of the results follow. Residues, ends and D or L forms follow the SMILES beside them. *: point of attachment. Cbz = O=C(OCc1ccccc1)*
Experiments:
Assay in all cases: log2 fold change, soluble protein after heating vs DMSO (PISA); higher = thermal stabilisation; K562 cells, 10 uM, 30 min; active = over 0.2 and 3.5 SD of the protein, either way, in both replicates (recomputed)
[1] = compound: C1COCCN1CCN2C3=CC=CC=C3N=C2NC(=O)C4=CC(=CC=C4)[N+](=O)[O-] [IRAK-1-4 Inhibitor I]
Method in brief: (§1)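 Values are thermal stability changes relative to control samples and are taken from duplicates. They are stated as log2 fold changes. Before quantification by TMTpro 16plex LC-MS/MS with equalised channel sums, K562 cells at 2×10^6 cells/mL were treated with 10 μM compound for 30 min, heated in aliquots for 3 min across 48°C-58°C, pooled, extracted in PBS with 0.5% NP-40 at 4°C, and centrifuged at 21,000xg for 90 min to give the soluble supernatant.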

Sequences of proteins named here, by UniProt entry; tags and fusion partners are left off. A change or cut given only in a name is not applied to a line headed by its entry.
UniProt P36268: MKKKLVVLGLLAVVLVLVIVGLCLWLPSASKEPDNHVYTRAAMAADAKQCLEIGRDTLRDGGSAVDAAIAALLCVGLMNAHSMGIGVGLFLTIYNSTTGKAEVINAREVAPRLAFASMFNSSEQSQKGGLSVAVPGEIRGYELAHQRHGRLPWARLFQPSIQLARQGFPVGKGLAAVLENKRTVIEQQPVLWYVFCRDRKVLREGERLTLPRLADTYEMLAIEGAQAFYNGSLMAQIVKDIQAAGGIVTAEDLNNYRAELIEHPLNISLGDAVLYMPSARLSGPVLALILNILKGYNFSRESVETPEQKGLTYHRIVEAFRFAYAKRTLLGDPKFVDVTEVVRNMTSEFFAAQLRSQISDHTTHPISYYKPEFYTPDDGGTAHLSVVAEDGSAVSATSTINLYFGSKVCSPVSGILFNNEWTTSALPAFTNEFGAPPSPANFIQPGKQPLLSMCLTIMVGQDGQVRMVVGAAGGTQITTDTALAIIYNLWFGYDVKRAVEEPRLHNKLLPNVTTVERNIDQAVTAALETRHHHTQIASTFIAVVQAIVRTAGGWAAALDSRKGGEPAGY
UniProt Q9UPW0: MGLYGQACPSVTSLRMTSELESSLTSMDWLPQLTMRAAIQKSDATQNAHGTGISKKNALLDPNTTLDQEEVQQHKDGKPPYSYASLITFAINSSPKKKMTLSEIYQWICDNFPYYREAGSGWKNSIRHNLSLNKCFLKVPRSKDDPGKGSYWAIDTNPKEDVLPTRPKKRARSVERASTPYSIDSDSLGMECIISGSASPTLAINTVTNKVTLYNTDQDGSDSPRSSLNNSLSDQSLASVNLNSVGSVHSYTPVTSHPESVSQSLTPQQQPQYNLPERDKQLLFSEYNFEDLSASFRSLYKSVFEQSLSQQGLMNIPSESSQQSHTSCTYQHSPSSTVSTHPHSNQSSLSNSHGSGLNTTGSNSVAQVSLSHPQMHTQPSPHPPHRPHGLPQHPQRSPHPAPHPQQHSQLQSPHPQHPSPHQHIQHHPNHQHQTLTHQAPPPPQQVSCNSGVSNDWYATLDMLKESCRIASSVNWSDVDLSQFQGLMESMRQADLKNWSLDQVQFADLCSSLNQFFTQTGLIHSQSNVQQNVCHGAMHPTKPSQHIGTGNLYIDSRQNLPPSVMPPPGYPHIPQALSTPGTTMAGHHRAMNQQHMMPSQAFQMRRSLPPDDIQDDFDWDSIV
UniProt Q6NT46: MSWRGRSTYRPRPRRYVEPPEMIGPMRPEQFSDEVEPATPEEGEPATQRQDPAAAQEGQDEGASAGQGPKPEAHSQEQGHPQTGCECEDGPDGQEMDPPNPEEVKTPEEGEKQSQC
UniProt P48506: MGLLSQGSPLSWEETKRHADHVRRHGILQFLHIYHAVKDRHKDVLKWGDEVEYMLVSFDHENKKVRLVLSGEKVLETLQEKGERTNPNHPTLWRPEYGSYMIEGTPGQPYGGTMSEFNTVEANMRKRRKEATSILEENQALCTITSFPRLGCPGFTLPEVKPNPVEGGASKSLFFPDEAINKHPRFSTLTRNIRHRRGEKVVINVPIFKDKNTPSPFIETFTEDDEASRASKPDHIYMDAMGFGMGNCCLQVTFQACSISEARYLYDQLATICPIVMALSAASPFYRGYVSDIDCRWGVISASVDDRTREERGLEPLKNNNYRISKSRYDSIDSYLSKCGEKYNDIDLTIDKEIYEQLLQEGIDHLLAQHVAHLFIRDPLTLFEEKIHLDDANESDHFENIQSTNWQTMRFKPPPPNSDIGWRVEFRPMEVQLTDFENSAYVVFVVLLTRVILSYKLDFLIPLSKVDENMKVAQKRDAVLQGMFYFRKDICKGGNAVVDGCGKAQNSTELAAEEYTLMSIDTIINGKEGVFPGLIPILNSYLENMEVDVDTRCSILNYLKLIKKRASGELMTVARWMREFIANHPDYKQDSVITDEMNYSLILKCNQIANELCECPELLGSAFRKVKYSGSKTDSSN
UniProt P23434: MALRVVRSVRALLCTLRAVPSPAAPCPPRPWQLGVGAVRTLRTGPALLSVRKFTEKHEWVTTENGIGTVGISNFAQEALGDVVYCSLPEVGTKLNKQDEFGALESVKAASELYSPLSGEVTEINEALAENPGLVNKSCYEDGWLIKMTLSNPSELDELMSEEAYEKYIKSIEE
UniProt Q8N2G8: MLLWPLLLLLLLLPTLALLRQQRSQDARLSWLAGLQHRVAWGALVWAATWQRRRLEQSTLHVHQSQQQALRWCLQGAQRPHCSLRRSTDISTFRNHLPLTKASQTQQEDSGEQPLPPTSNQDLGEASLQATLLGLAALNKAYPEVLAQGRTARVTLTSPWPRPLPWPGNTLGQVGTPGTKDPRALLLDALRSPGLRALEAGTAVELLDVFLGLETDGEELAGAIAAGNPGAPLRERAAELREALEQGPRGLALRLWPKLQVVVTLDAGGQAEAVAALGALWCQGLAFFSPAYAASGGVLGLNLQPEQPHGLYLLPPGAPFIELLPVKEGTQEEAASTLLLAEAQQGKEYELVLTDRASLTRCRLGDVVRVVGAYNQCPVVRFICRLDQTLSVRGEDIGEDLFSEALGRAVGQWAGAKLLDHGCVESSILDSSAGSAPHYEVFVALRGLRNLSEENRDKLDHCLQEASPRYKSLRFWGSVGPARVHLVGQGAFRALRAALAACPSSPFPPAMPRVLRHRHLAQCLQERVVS
UniProt P0CL80: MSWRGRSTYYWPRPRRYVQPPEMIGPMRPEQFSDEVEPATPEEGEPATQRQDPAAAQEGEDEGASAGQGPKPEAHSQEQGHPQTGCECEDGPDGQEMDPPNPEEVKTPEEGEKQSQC
UniProt Q9H0R8, whole entry, looked up: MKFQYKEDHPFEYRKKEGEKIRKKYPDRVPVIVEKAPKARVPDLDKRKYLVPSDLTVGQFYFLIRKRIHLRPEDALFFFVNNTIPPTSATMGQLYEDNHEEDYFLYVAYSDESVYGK
UniProt Q8N9F7: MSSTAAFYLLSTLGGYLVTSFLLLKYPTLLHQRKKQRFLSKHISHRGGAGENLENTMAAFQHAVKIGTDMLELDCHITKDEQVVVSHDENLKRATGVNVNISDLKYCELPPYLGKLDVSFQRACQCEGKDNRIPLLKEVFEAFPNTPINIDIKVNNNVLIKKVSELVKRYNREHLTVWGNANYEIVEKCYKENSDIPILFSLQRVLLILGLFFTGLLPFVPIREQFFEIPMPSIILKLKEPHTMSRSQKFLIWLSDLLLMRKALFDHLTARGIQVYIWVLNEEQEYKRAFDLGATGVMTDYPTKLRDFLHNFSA
UniProt Q9UJY4: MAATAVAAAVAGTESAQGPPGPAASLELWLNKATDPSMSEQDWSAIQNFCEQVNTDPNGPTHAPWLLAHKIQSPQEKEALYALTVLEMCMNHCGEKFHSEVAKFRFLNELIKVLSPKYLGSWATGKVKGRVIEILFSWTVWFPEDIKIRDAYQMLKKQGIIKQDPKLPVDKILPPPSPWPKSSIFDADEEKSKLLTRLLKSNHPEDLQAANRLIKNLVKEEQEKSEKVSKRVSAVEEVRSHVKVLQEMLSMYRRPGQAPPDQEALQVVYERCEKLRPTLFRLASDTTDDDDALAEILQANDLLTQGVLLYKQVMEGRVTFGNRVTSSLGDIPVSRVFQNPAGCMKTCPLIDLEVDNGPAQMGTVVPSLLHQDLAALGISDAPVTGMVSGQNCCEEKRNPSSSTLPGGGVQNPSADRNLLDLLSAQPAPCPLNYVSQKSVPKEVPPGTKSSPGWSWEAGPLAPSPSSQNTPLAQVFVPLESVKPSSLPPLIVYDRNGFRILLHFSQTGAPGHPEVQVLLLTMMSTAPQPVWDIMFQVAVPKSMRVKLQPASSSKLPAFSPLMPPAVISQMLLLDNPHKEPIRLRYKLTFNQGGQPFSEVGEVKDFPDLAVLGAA
UniProt Q92538, whole entry, looked up: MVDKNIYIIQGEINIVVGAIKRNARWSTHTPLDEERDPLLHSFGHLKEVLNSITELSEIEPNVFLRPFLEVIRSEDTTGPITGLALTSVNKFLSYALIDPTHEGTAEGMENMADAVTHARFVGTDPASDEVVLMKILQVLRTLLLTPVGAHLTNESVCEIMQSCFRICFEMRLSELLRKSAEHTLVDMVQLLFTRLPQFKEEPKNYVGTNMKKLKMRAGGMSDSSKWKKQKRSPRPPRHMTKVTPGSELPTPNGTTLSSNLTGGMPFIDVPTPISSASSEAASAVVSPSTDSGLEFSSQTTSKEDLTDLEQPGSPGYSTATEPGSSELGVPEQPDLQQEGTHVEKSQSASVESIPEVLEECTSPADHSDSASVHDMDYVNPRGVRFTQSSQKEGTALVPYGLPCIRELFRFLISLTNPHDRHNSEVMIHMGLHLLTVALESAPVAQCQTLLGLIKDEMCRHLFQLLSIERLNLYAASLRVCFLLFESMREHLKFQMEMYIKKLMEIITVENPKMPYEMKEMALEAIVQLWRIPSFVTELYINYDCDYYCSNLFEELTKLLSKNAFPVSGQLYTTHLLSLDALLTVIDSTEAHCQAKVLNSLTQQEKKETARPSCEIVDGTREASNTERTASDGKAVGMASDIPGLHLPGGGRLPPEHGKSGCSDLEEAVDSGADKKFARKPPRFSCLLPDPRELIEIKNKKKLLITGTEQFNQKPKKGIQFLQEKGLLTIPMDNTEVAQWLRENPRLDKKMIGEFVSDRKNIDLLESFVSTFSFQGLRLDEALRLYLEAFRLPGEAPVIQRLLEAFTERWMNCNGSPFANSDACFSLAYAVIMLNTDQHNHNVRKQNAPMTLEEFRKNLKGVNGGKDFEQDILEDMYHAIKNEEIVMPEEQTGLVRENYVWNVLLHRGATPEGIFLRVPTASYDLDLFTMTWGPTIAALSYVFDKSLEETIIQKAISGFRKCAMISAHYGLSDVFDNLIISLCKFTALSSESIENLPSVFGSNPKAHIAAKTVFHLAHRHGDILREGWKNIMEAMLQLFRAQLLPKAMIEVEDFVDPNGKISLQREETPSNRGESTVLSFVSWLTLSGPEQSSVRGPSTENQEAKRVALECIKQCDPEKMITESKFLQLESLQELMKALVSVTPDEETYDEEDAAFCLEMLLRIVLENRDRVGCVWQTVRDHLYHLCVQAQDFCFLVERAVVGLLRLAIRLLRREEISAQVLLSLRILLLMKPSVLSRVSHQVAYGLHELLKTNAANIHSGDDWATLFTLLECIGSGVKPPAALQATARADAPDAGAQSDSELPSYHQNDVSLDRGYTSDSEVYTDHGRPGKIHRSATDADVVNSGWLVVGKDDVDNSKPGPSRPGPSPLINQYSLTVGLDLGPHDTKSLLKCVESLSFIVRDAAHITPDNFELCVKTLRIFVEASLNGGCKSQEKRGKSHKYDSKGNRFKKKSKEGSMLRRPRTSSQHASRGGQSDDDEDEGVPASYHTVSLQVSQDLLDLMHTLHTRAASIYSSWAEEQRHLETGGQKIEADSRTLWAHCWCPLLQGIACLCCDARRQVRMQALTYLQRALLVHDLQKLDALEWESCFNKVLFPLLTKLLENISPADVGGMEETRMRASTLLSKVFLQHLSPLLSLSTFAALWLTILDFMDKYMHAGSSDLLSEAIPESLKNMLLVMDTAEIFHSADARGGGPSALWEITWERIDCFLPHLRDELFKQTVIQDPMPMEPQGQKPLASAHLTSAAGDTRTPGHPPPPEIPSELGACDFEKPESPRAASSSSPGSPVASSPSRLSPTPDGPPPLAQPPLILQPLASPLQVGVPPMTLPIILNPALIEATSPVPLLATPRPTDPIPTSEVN
UniProt Q10471: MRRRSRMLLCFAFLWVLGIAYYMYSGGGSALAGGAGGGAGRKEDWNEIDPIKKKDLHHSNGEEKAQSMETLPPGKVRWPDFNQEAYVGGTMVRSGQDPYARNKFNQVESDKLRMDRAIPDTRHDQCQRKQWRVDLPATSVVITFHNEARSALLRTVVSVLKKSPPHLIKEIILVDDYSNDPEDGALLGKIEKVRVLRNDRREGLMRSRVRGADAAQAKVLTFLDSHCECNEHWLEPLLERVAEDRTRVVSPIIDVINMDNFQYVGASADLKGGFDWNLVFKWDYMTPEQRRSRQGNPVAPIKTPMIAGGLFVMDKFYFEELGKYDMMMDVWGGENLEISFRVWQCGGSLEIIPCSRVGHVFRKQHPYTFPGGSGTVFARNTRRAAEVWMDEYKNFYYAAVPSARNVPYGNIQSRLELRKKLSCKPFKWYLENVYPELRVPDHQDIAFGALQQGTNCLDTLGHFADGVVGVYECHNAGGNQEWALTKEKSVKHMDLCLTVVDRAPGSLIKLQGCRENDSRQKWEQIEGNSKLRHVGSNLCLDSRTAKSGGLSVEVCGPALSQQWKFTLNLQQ
UniProt Q8WXD5: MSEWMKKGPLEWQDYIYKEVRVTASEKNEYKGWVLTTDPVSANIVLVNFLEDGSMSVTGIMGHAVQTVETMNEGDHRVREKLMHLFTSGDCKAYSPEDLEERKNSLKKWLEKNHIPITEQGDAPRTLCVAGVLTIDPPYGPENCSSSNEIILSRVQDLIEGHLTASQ

[2] = compound: C=CC(=O)N1CCC[C@@H](n2nc(-c3ccc(Oc4ccccc4)cc3)c3c(N)ncnc32)C1 [ibrutinib]
Method in brief: as §1

[3] = compound: CC(=O)c1cnc2ccc(-c3cc(Cl)c(O)c(Cl)c3)nc2c1N[C@H]1CC[C@H](CN(C)C)CC1
Method in brief: as §1

[4] = compound: CC(C)(C)Cn1c(N)nc2ccc(-c3[nH]c(C(C)(C)C)nc3-c3ccc(F)cc3)nc21 [ralimetinib]
Method in brief: as §1

[5] = compound: CC(C)(O)CC(=O)NCCn1ccc2ncnc(Nc3ccc(Oc4cccc(C(F)(F)F)c4)c(Cl)c3)c21
Method in brief: as §1

[6] = compound: CC(C)C1=C2N=C(C=C(N2N=C1)NCC3=CC=CC=C3)NCCCCCCN
Method in brief: as §1

[7] = compound: CC(C)C[C@@H](C=O)NC(=O)[C@H](CC(C)C)NC(=O)[C@H](CC(C)C)NC(=O)OCc1ccccc1
Method in brief: as §1

[8] = compound: CC(C)N(C[C@H]1O[C@@H](n2cnc3c(N)ncnc32)[C@H](O)[C@@H]1O)[C@H]1C[C@@H](CCc2nc3cc(C(C)(C)C)ccc3[nH]2)C1 [pinometostat]
Method in brief: as §1

[9] = compound: CC1=C(C(CC(=O)N1)C2=CC=C(C=C2)C(F)(F)F)C(=O)NC3=C(C=C4C(=C3)C=NN4)F
Method in brief: as §1

[10] = compound: CC1=C(C2=C(C=C1)C(=O)C3=CC=CC=C3N2CCCN)C
Method in brief: as §1

Measured: log2 fold change

GGH (UniProt Q92820)
inactive: [1] 0.038 | [2] 0.048 | [3] -0.003 | [4] -0.06 | [5] 0.005 | [6] 0.011 | [7] -0.002 | [8] -0.022 | [9] -0.01 | [10] 0

GGT2 isoform 3 (UniProt P36268)
inactive: [1] -0.077 | [2] 0.037 | [3] 0.014 | [4] -0.046 | [5] 0.244 | [6] 0.05 | [7] -0.007 | [8] -0.03 | [9] 0.023 | [10] 0.137

FOXJ3 (UniProt Q9UPW0)
inactive: [1] 0.059 | [2] -0.141 | [3] -0.132 | [4] -0.054 | [5] 0.003 | [6] -0.022 | [7] -0.019 | [8] -0.015 | [9] 0.012 | [10] -0.159

FRRS1 (UniProt Q6ZNA5)
inactive: [1] 0.007 | [2] 0.011 | [3] -0.049 | [4] -0.033 | [5] -0.093 | [6] 0.101 | [7] 0.006 | [8] -0.024 | [9] 0.041 | [10] -0.013

GAGE2A (UniProt Q6NT46)
inactive: [1] -0.009 | [2] 0.031 | [3] 0.01 | [4] -0.068 | [5] -0.045 | [6] 0.017 | [7] 0.061 | [8] -0.028 | [9] 0.035 | [10] -0.032

GCLC (UniProt P48506)
inactive: [1] 0.01 | [2] 0.002 | [3] -0.024 | [4] -0.06 | [5] -0.052 | [6] -0.038 | [7] 0.025 | [8] -0.001 | [9] 0 | [10] -0.024

GFPT1 (UniProt Q06210)
inactive: [1] 0.012 | [2] 0.035 | [3] 0.003 | [4] -0.039 | [5] -0.049 | [6] -0.059 | [7] -0.062 | [8] -0.025 | [9] -0.006 | [10] -0.031

FUCA2 (UniProt Q9BTY2)
inactive: [1] -0.078 | [2] 0.043 | [3] -0.056 | [4] 0.019 | [5] 0.026 | [6] -0.09 | [7] -0.004 | [8] 0.036 | [10] -0.12

GCSH (UniProt P23434)
inactive: [1] 0.027 | [2] -0.002 | [3] 0.011 | [4] -0.026 | [5] -0.031 | [6] -0.025 | [7] -0.049 | [8] -0.021 | [10] 0.03

FOXK1 (UniProt P85037)
inactive: [1] 0.046 | [2] 0.121 | [4] -0.027 | [5] 0.015 | [6] 0.111 | [7] 0.052 | [8] -0.002 | [10] 0.154
active: [3] -1.03

FUBP3 (UniProt Q96I24)
inactive: [1] -0.002 | [2] -0.002 | [3] -0.054 | [4] 0.023 | [5] -0.083 | [6] 0.15 | [7] 0.036 | [8] -0.017
active: [10] 0.387

GHDC (UniProt Q8N2G8)
active: [6] -0.277
inactive: [1] 0.014 | [2] 0.015 | [3] -0.036 | [4] 0.007 | [5] 0.037 | [7] 0.018 | [8] -0.015 | [10] -0.011

GAGE12F (UniProt P0CL80)
inactive: [1] 0.045 | [2] 0.025 | [3] 0.037 | [4] -0.038 | [5] 0.02 | [6] 0.015 | [7] 0.019 | [8] -0.06 | [10] 0.128

GAPVD1 isoform 6 (UniProt Q14C86)
active: [6] -0.278
inactive: [1] -0.044 | [2] -0.087 | [3] 0.005 | [4] 0.056 | [5] -0.111 | [7] 0.037 | [8] 0.094 | [10] -0.003

FUCA1 (UniProt P04066)
inactive: [1] -0.003 | [2] 0.018 | [3] -0.049 | [4] -0.067 | [5] 0.056 | [6] -0.054 | [7] 0.003 | [8] -0.03 | [10] -0.199

GABARAPL1 isoform 2 (UniProt Q9H0R8)
active: [6] -0.369
inactive: [1] 0.031 | [2] -0.057 | [3] -0.065 | [4] -0.003 | [5] -0.024 | [7] 0.092 | [8] -0.044 | [10] 0.023

GDPD1 (UniProt Q8N9F7)
inactive: [1] 0.02 | [2] -0.03 | [3] 0.044 | [4] 0.066 | [5] -0.03 | [6] 0.04 | [7] 0.03 | [8] -0.027 | [10] -0.015

GALNT12 (UniProt Q8IXK2)
inactive: [1] 0.046 | [2] 0.077 | [3] -0.074 | [4] 0.002 | [5] 0.005 | [6] -0.112 | [7] 0.045 | [8] 0.023 | [10] -0.254

2 consecutive entries from above:
GABARAPL1 isoform 2 (UniProt Q9H0R8)
active: [6] -0.369
inactive: [1] 0.031 | [2] -0.057 | [3] -0.065 | [4] -0.003 | [5] -0.024 | [7] 0.092 | [8] -0.044 | [10] 0.023

GDPD1 (UniProt Q8N9F7)
inactive: [1] 0.02 | [2] -0.03 | [3] 0.044 | [4] 0.066 | [5] -0.03 | [6] 0.04 | [7] 0.03 | [8] -0.027 | [10] -0.015

(further entries)

GGA2 (UniProt Q9UJY4)
inactive: [1] 0.007 | [2] -0.05 | [3] -0.006 | [4] -0.153 | [5] -0.048 | [6] -0.169 | [7] 0.068 | [8] -0.038 | [10] 0.032

FUT8 (UniProt Q9BYC5)
inactive: [1] -0.02 | [2] 0.064 | [3] -0.098 | [4] -0.087 | [5] 0.019 | [6] -0.133 | [7] 0.053 | [8] 0.065 | [10] 0.077

GALC (UniProt P54803)
inactive: [1] 0.053 | [2] 0.017 | [3] 0.016 | [4] -0.012 | [5] 0.041 | [6] -0.122 | [7] 0.05 | [8] 0.067 | [10] -0.003

GBF1 (UniProt Q92538)
inactive: [1] -0.033 | [2] -0.049 | [3] -0.044 | [4] 0.017 | [5] -0.05 | [6] -0.088 | [7] 0.015 | [8] 0.115 | [10] 0.007

GALNT1 (UniProt Q10472)
inactive: [1] -0.106 | [2] 0.023 | [3] -0.002 | [4] 0.101 | [5] 0.018 | [6] 0.048 | [7] -0.141 | [8] -0.025 | [10] 0.021

GATA1 (UniProt P15976)
active: [10] -0.368
inactive: [1] 0.038 | [2] 0.015 | [3] 0.051 | [4] 0.041 | [5] 0.027 | [6] 0.047 | [7] 0.088 | [8] 0.027

GALNT2 (UniProt Q10471)
inactive: [1] 0.009 | [2] -0.019 | [3] -0.006 | [4] 0.014 | [5] 0.027 | [6] -0.021 | [7] -0.02 | [8] -0.02 | [10] 0.007

GEMIN5 (UniProt Q8TEQ6)
active: [6] -0.422 | [10] -0.28
inactive: [1] -0.037 | [2] -0.014 | [3] -0.155 | [4] 0.034 | [5] -0.049 | [7] 0.033 | [8] 0.043

GEMIN6 (UniProt Q8WXD5)
inactive: [1] 0.035 | [2] 0.021 | [3] 0.016 | [4] 0.188 | [5] -0.03 | [6] -0.012 | [7] -0.226 | [8] 0.046 | [10] 0.03

Source: the supplement of paper PMC10849652
